Data reported in the supplement of paper PMC12823440, “Inhibitors supercharge kinase turnover through native proteolytic circuits” (Nature, 2025).
Counter-ions that a name gives are not always drawn. The list shows a part of the results. The calls rarely recur for the same compound in another form.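 Kinases, fused to nanoluciferase, were expressed in K562 cells; luminescence was measured every 4 h from 2 to 18 h as percent of control (DMSO = 100%, positive control = 0%). A time point is decreased if signal falls significantly (2 sigma). Hits were called by the authors by a rule that is not shown; the count of time points alone does not decide it.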

Amino acid sequences for entries named in this document (tags omitted). A change or cut given only in a name is not applied to a line headed by its entry.
UniProt P07333, whole entry: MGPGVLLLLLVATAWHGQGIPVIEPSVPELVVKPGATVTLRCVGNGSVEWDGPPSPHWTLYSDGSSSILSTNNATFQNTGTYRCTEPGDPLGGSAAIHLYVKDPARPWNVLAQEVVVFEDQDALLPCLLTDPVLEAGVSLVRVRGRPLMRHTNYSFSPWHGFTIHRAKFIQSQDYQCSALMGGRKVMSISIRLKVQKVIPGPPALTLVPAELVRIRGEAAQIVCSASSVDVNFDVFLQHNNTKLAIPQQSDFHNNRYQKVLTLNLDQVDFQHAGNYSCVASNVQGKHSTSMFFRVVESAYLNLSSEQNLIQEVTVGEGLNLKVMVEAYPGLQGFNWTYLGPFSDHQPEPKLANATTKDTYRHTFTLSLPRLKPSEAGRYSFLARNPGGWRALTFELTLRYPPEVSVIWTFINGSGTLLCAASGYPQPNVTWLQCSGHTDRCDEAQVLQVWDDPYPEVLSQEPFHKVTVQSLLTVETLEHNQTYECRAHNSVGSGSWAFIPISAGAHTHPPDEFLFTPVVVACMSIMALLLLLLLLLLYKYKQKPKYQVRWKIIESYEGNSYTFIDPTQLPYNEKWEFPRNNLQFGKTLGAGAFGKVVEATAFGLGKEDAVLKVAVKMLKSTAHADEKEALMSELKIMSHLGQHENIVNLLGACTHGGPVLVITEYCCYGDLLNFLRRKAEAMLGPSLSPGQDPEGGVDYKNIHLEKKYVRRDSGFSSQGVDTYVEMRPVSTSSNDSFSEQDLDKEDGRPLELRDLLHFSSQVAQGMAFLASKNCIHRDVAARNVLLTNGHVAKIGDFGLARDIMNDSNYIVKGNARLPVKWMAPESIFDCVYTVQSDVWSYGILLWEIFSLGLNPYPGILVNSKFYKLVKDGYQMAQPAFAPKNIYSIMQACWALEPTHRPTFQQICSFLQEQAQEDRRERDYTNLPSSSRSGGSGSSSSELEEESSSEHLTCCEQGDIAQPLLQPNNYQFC
UniProt P41240: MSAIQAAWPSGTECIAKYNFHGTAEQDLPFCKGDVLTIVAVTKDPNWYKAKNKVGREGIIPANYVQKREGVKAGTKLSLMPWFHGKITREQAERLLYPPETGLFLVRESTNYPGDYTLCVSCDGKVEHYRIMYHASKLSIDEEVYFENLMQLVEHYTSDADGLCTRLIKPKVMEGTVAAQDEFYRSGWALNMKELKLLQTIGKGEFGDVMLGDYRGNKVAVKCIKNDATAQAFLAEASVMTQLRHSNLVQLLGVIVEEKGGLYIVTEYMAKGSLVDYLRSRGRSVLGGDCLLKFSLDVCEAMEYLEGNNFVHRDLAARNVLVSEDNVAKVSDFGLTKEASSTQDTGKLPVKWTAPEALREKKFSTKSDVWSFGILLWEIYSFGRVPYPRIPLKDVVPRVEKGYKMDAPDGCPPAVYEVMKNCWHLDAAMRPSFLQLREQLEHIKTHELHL

molecular target: CSF1R (UniProt P07333); test: kinase-Nluc reporter destabilization hit call (1 = scored as downregulated) (binary); higher = compound decreases kinase abundance; conditions: K562; 2-18 h

kinase-Nluc reporter destabilization hit call, inactive:
CC(C)(C)S(=O)(=O)c1cc2c(Nc3ccc4scnc4c3)ncnc2cc1OCCO (2.5 µM) 0
O=C(NOC[C@H](O)CO)c1ccc(F)c(F)c1Nc1ccc(I)cc1F (2.5 µM) 0
Cc1cccc([C@@H](CO)NC(=O)[C@@H](C)N2Cc3ccc(-c4nc(NC5CCOCC5)ncc4Cl)cc3C2=O)c1 [ERK1/2 inhibitor 1] (10 µM) 0
CNC(=O)c1cc(Oc2ccc(NC(=O)Nc3cc(C(C)(C)C)nn3-c3ccc4ncccc4c3)c(F)c2)ccn1 [Rebastinib] (2.5 µM) 0
CCCn1cnc2c(NCc3ccccc3)nc(NC(CC)CO)nc21 (stereo not drawn) [Ca2+ channel agonist 1] (2.5 µM) 0
Brc1c(Br)c(Br)c2n[nH]nc2c1Br (10 µM) 0
C=CC(=O)Nc1cccc(Nc2nc(Nc3ccc(OCCOC)cc3)ncc2F)c1 [Spebrutinib] (10 µM) 0
CC(C)=CC/C=C(\C)[C@H]1CC[C@]2(C)[C@@H]1[C@H](O)C[C@@H]1[C@@]3(C)CC[C@H](O[C@@H]4O[C@H](CO)[C@@H](O)[C@H](O)[C@H]4O[C@@H]4O[C@H](CO)[C@@H](O)[C@H](O)[C@H]4O)C(C)(C)[C@@H]3CC[C@]12C [Ginsenoside Rg5] (10 µM) 0
Cc1ncc(-c2ccnc(Nc3ccc(S(C)(=O)=O)cc3)n2)n1C(C)C (2.5 µM) 0
CN(C)CCOc1ccc(-c2nc(-c3ccncc3)c(-c3ccc4c(c3)CC/C4=N\O)[nH]2)cc1 (10 µM) 0
CCN(CCCOc1ccc2c(Nc3cc(CC(=O)Nc4cccc(F)c4)[nH]n3)ncnc2c1)CCOP(=O)(O)O [Barasertib] (10 µM) 0
C=CC(=O)N[C@H]1COC[C@H]1Nc1ncc2cc(-c3c(Cl)c(OC)cc(OC)c3Cl)c(=O)n(C)c2n1 (10 µM) 0

molecular target: CSK (UniProt P41240); test: as above; conditions: K562; 2-18 h

kinase-Nluc reporter destabilization hit call, inactive:
CC#CC(=O)N[C@H]1CCCN(c2c(F)cc(C(N)=O)c3[nH]c(C)c(C)c23)C1 [Branebrutinib] (10 µM) 0
O=C1NC(=NCc2cccs2)S/C1=C\c1ccc2ncccc2c1 (10 µM) 0
Cn1c(=O)n(-c2ccc(C(C)(C)C#N)cc2)c2c3cc(-c4cnc5ccccc5c4)ccc3ncc21 [Dactolisib (Tosylate)] (10 µM) 0
COC(=O)c1ccc2c(C(=Nc3ccc(N(C)C(=O)CN4CCN(C)CC4)cc3)c3ccccc3)c(O)[nH]c2c1 [Nintedanib] (2.5 µM) 0
COc1cc2ncnc(Nc3ccc(O)cc3)c2cc1OC (10 µM) 0
O=C(c1ccc(-c2ccc(Cl)cc2)o1)N(Cc1ccccn1)c1ccc(N2CCNCC2)cc1 [MK2-IN-1 (hydrochloride)] (10 µM) 0
CN1CCN(S(=O)(=O)c2ccc(-c3cnc(N)c(C(=O)Nc4cccnc4)n3)cc2)CC1 (10 µM) 0
CN(C)C[C@@H]1CCn2cc(c3ccccc32)C2=C(C(=O)NC2=O)c2cn(c3ccccc23)CCO1 [Ruboxistaurin (hydrochloride)] (10 µM) 0
COc1ccc(Oc2cc(NCCC(F)(F)F)c3ncc(-c4ccc(C(=O)NC5CC5)c(C)c4)n3n2)c(F)c1F (2.5 µM) 0
CCCCNc1ncc(-c2ccc(CN3CCOCC3)cn2)c(NC2CCC(O)CC2)n1 (stereo not drawn) (10 µM) 0
O=C(Nc1cc(C(F)(F)F)ccc1N1CCN(Cc2ccccn2)CC1)c1ccc(-c2ccncc2)o1 (10 µM) 0
CC(C)(/C=C(\C#N)C(=O)N1CCC[C@@H](n2nc(-c3ccc(Oc4ccccc4)cc3F)c3c(N)ncnc32)C1)N1CCN(C2COC2)CC1 (2.5 µM) 0
CNC(=O)c1cccc2cc(Oc3ccnc4cc(OCC5(N)CC5)c(OC)cc34)ccc12 [Lucitanib] (10 µM) 0
COc1cc(F)cc([C@@H](CO)NC(=O)[C@@H](C)N2Cc3ccc(-c4nc(NC5CCOCC5)ncc4Cl)cc3C2=O)c1 [ERK1/2 inhibitor 2] (10 µM) 0
O=c1cc(-c2ccccc2)oc2c(O)c(O)ccc12 [7,8-Dihydroxyflavone] (10 µM) 0
C=CC(=O)N1CC[C@H](n2nc(C#Cc3cc(OC)cc(OC)c3)c3c(N)ncnc32)C1 [Futibatinib] (10 µM) 0

Sorted by molar mass (largest number first): 3 of the compounds above.
kinase-Nluc reporter destabilization hit call, inactive:
COC(=O)c1ccc2c(C(=Nc3ccc(N(C)C(=O)CN4CCN(C)CC4)cc3)c3ccccc3)c(O)[nH]c2c1 [Nintedanib] (2.5 µM) 0
O=C(c1ccc(-c2ccc(Cl)cc2)o1)N(Cc1ccccn1)c1ccc(N2CCNCC2)cc1 [MK2-IN-1 (hydrochloride)] (10 µM) 0
COc1cc2ncnc(Nc3ccc(O)cc3)c2cc1OC (10 µM) 0
